# Measurements published in the supplement of paper PMC11006884.
# The chains behind the UniProt entries cited, without tags or fusion partners. Where a name states a change or a piece, a line headed by the entry shows the natural chain unless it says otherwise.
# UniProt O15085: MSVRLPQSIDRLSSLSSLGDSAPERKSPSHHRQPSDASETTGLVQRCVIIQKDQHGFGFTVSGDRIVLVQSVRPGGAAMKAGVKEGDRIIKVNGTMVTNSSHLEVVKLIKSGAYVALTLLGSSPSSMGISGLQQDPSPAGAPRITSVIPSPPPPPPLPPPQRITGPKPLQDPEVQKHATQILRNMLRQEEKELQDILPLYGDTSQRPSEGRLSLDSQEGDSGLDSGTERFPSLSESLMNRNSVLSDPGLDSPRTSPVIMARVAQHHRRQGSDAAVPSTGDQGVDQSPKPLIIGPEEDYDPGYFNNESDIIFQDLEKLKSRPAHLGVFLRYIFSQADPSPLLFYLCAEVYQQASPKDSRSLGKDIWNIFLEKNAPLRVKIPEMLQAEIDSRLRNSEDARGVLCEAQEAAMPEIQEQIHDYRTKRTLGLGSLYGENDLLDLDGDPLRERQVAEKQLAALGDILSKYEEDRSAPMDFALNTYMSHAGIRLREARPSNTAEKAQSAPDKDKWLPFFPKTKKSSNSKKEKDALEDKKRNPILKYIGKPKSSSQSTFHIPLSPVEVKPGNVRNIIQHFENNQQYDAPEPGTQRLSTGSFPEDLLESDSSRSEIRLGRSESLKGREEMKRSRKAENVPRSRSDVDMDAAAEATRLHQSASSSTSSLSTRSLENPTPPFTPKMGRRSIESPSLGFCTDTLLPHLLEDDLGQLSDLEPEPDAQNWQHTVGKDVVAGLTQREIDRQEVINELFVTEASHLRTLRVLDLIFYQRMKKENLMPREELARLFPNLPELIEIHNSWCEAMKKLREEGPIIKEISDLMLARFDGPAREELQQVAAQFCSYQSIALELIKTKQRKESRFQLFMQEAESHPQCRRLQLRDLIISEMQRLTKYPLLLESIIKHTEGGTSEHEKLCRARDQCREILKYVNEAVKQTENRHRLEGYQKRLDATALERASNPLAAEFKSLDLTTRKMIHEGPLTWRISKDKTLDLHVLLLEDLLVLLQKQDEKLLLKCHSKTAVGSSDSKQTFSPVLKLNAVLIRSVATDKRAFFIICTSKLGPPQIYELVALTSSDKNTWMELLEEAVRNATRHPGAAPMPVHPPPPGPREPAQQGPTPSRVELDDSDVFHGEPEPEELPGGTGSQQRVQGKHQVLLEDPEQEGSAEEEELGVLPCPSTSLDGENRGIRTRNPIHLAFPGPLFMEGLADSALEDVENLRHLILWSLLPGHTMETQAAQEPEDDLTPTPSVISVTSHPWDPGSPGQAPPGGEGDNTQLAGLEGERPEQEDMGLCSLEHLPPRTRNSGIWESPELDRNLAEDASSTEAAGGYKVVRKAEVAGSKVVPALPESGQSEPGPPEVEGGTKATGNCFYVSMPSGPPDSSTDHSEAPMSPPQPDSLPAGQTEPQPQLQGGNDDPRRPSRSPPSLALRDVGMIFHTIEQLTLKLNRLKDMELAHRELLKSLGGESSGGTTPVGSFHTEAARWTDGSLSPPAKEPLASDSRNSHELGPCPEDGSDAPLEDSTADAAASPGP
# UniProt O00151: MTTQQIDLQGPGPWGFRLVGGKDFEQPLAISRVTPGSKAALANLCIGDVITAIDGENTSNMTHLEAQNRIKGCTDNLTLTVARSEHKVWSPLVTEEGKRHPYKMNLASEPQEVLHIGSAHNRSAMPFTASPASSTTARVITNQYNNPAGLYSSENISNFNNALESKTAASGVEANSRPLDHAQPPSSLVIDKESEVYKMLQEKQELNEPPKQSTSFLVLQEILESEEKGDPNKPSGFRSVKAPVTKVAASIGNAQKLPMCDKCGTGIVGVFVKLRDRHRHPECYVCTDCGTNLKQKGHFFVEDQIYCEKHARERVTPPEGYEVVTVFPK
# UniProt O00232: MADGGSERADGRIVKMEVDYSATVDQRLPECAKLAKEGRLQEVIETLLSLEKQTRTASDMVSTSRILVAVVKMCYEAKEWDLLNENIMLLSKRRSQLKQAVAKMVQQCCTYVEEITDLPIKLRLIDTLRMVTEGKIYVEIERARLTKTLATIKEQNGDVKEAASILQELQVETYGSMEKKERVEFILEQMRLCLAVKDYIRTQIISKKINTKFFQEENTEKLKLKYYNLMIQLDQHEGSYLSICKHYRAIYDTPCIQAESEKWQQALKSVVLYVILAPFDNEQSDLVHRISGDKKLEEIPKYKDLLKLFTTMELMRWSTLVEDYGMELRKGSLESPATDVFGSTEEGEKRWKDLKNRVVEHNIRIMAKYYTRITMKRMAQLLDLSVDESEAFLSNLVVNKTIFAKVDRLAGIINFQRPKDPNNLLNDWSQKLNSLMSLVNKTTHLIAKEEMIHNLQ
# UniProt O14654: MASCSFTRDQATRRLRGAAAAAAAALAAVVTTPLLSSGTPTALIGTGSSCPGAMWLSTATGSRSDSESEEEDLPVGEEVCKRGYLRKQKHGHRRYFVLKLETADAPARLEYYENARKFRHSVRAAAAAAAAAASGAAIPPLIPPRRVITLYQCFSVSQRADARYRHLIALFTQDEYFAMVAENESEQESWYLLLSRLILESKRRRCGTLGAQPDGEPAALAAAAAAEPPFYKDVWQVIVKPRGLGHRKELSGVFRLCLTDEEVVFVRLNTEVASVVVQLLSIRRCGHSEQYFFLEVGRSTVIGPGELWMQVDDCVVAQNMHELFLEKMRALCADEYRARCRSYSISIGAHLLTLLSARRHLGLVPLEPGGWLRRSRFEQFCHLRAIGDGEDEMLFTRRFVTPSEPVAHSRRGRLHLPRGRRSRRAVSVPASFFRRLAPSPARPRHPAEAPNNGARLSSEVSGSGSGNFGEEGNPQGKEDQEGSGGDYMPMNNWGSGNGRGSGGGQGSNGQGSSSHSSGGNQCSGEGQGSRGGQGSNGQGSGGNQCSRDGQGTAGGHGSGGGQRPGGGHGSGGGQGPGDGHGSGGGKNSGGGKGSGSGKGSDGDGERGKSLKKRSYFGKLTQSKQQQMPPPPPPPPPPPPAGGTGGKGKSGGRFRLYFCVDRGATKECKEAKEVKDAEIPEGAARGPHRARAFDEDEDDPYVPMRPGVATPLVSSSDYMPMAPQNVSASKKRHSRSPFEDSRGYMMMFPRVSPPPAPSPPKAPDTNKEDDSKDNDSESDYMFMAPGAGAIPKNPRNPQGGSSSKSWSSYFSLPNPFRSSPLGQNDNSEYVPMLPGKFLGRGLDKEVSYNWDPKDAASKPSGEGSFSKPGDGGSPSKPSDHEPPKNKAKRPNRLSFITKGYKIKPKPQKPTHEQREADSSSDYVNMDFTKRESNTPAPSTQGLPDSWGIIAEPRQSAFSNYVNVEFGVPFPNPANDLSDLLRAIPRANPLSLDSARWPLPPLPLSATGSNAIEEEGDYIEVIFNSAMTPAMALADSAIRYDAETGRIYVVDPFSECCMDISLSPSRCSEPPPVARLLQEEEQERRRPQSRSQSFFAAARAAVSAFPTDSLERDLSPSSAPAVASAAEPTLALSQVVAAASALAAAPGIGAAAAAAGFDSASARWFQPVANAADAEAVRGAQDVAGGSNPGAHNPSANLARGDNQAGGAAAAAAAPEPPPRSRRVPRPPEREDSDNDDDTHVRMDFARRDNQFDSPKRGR
# UniProt O15228: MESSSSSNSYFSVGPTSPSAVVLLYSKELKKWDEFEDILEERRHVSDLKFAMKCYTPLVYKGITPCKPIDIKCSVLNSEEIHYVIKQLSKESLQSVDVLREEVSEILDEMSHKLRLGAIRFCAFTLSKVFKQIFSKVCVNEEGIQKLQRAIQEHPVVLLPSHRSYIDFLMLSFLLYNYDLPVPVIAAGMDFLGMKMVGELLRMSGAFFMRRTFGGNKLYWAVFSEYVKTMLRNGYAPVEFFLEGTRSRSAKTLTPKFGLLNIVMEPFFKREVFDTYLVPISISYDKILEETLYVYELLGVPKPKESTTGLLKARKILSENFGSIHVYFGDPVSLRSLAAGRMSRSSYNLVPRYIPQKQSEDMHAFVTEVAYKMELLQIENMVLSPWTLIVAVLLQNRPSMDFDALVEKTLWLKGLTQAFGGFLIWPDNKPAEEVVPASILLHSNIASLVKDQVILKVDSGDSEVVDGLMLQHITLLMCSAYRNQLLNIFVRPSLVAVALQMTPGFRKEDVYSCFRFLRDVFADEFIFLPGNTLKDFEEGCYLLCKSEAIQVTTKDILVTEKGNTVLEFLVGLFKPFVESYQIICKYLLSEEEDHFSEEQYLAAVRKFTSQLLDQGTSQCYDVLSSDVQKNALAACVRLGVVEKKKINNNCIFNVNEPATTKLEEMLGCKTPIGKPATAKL
# UniProt O43175: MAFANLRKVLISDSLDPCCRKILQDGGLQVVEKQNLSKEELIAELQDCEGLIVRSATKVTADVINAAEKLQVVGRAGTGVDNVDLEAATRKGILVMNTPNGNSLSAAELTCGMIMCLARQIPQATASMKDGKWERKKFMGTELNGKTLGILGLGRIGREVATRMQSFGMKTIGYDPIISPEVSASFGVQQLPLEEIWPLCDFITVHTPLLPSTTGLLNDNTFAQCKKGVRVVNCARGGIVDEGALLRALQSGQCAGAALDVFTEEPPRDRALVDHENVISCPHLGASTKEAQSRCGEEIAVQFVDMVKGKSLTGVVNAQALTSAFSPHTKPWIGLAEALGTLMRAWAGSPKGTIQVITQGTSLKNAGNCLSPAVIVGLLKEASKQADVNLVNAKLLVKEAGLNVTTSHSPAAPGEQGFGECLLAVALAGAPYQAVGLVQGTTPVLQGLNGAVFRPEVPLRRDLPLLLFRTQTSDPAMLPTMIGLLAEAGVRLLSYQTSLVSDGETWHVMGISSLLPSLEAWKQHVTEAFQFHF
# UniProt O15067: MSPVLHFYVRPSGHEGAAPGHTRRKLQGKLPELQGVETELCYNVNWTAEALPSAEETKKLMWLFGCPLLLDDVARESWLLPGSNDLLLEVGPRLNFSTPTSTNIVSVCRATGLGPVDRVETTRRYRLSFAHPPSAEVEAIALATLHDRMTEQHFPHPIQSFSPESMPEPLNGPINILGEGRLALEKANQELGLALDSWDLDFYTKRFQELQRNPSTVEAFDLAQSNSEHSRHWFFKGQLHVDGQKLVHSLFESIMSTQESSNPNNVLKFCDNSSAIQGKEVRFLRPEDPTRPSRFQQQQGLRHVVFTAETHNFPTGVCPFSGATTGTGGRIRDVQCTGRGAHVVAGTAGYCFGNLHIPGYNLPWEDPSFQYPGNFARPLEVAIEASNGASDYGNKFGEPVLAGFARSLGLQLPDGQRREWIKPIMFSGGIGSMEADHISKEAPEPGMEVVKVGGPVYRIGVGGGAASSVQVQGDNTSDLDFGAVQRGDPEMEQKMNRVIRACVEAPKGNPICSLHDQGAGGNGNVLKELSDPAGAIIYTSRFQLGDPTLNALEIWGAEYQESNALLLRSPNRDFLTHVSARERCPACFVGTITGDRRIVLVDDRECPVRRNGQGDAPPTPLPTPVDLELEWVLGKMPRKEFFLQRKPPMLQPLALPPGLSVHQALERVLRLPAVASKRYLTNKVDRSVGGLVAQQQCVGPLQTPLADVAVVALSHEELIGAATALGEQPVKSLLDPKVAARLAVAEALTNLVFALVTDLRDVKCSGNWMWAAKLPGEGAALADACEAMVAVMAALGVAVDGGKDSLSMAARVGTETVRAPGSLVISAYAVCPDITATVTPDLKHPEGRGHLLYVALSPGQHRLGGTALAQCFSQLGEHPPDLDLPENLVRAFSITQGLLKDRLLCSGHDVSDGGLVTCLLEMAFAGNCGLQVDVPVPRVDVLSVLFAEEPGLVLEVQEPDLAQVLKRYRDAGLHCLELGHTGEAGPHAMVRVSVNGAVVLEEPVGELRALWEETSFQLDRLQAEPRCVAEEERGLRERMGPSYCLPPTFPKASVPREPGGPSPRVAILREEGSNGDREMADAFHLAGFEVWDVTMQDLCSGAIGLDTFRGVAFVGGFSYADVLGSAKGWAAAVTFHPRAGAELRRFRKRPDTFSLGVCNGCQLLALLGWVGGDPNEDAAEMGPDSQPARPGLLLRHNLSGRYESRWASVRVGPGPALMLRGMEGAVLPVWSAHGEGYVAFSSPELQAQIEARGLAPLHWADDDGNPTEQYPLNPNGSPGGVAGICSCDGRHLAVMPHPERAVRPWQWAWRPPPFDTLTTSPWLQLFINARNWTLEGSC
# UniProt O43148, whole entry, looked up: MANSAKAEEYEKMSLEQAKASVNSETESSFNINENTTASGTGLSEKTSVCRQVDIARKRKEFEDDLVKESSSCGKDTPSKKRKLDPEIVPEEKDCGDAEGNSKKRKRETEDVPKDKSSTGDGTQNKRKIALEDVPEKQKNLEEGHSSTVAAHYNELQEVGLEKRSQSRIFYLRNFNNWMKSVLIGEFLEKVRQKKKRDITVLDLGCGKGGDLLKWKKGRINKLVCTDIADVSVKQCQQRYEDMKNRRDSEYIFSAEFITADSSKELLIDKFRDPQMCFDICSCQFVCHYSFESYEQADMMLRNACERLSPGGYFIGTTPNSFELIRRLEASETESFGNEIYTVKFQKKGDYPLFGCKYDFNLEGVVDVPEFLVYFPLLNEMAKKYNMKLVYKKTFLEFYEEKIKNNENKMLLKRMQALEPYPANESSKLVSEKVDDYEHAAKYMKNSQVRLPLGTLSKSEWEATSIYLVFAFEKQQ
# Only a part is listed here, and it is no random draw.
# Compound: COC(=O)C#Cc1ccccc1 [methyl 3-phenylpropiolate]
# Assay: log2 ratio of iodoacetamide-alkyne labeling of the cysteine site, DMSO over compound (competition); higher = stronger covalent engagement of the cysteine by the compound, active = 1 or more
# Conditions: 500 µM; treatment time 1 h; system: HEK293T cell lysate
# How it was run: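 HEK293T lysate at 2 mg/mL was treated with vehicle or electrophile (500 µM) for 1 h at ambient temperature, then labelled with iodoacetamide alkyne (1 h), clicked to sCIP-TMT reagents, pooled, digested with trypsin overnight at 37 °C, enriched on streptavidin and eluted with acid. Peptides were analysed by Orbitrap Eclipse LC-MS/MS with FAIMS and quantified in FragPipe, using duplicate channels and three replicates, with cysteines quantified in only one replicate excluded. The log2 competition ratio for each cysteine is the mean control-channel reporter intensity divided by the mean compound-channel reporter intensity.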
row,Target,log2 ratio of iodoacetamide-alkyne labeling
1,UniProt O00567_C472,inactive: 0.365
2,UniProt O00148_C86,inactive: 0.118
3,ARHGEF11 C1500 (UniProt O15085),inactive: 0.0286
4,PPM1G C164 (UniProt O15355),inactive: 0.668
5,PDLIM1 C283 (UniProt O00151),inactive: 0.0356
6,PSMD12 C31 (UniProt O00232),inactive: 0.285
7,AP3B1 C507 (UniProt O00203),inactive: 0.248
8,HAT1 C376 (UniProt O14929),inactive: 0.198
9,CLIC1 C191 (UniProt O00299),inactive: -0.029
10,IRS4 C206 (UniProt O14654),inactive: 0.518
11,IRS4 C658 (UniProt O14654),inactive: 0.592
12,XPO1 C34 (UniProt O14980),inactive: -0.072
13,PRPF4 C441 (UniProt O43172),inactive: 0.531
14,DVL2 C80 (UniProt O14641),inactive: 0.142
15,POLRMT C726 (UniProt O00411),inactive: 0.6
16,EXOC5 C194 (UniProt O00471),inactive: 0.167
17,GNPAT C650 (UniProt O15228),inactive: 0.728
18,DNM1L C446 (UniProt O00429),inactive: 0.102
19,EXOC5 C111 (UniProt O00471),inactive: 0.297

row,Target,log2 ratio of iodoacetamide-alkyne labeling
1,PHGDH C281 (UniProt O43175),inactive: 0.43
2,AGPS C297 (UniProt O00116),inactive: -0.0189
3,NDUFA4 C44 (UniProt O00483),inactive: 0.0834
4,DDX3X C128 (UniProt O00571),inactive: 0.406
5,ZZEF1 C2466 (UniProt O43149),inactive: -0.132
6,UniProt O00148_C197,inactive: -0.0673
7,DHX15 C774 (UniProt O43143),inactive: 0.418
8,DDX3X C317 (UniProt O00571),inactive: 0.124
9,IPO5 C229 (UniProt O00410),inactive: 0.0502
10,PFAS C1285 (UniProt O15067),active: 1.36
11,PHGDH C369 (UniProt O43175),active: 1.78
12,ZZEF1 C69 (UniProt O43149),inactive: 0.129
13,RNMT C95 (UniProt O43148),inactive: 0.291
14,POLRMT C765 (UniProt O00411),inactive: 0.547
15,XPO1 C119 (UniProt O14980),inactive: 0.411
16,UniProt O14979_C177,inactive: 0.0873
17,OGT C620 (UniProt O15294),active: 1.35
18,PDLIM1 C307 (UniProt O00151),inactive: -0.118
19,IPO5 C110 (UniProt O00410),inactive: 0.471

# An excerpt of these results, tab-delimited.
row	Target	log2 ratio of iodoacetamide-alkyne labeling
1	PHGDH C281 (UniProt O43175)	inactive: 0.43
2	AGPS C297 (UniProt O00116)	inactive: -0.0189
3	NDUFA4 C44 (UniProt O00483)	inactive: 0.0834
